Results from article PMC3855713.
Results are given in words; binding and its absence hold for the method and conditions named. Some results given as binding are weak or reduced against the parent protein; the word gives no strength.

Biological target: Vaccinia virus uracil DNA glycosylase (D4) (Vaccinia virus) (UniProt P04303)
Assay: crystal structure; D4 co-crystallised with uracil; hanging drop, 277 K; reservoir 10% PEG 8000, 0.1 M Tris-HCl pH 8.0, 10% DMSO; 12 subunits in the asymmetric unit; 2.03 Å; both purified

“Vaccinia virus uracil DNA glycosylase (D4) (from UniProt P04303) (enzyme)” was tested, and the binding was “binds”.
